The values below come from publication doi:10.1101/2025.10.02.679945.

No constants are given. Whether binding was seen depends on the method and setting. Binding seen in cells or lysates may run through a third protein. Binding calls can cover weak binding; strength is not graded here.

The target of the assay is Dengue virus 1 capsid-anchor protein (c-anc, 1-114aa) (Dengue virus 1 (DENV-1)). Nature of the assay: pull-down.

B1: Alpha-1 syntrophin (SNTA1) (protein, UniProt Q13424 1-505)
chain: MASGRRAPRTGLLELRAGAGSGAGGERWQRVLLSLAEDVLTVSPADGDPGPEPGAPREQEPAQLNGAAEPGAGPPQLPEALLLQRRRVTVRKADAGGLGISIKGGRENKMPILISKIFKGLAADQTEALFVGDAILSVNGEDLSSATHDEAVQVLKKTGKEVVLEVKYMKDVSPYFKNSTGGTSVGWDSPPASPLQRQPSSPGPTPRNFSEAKHMSLKMAYVSKRCTPNDPEPRYLEICSADGQDTLFLRAKDEASARSWATAIQAQVNTLTPRVKDELQALLAATSTAGSQDIKQIGWLTEQLPSGGTAPTLALLTEKELLLYLSLPETREALSRPARTAPLIATRLVHSGPSKGSVPYDAELSFALRTGTRHGVDTHLFSVESPQELAAWTRQLVDGCHRAAEGVQEVSTACTWNGRPCSLSVHIDKGFTLWAAEPGAARAVLLRQPFEKLQMSSDDGASLLFLDFGGAEGEIQLDLHSCPKTIVFIIHSFLSAKVTRLGLLA
B1: the binding result was “binds”.
